Test results taken from the supplement of paper PMC10849652.
This is one part of the list.

Sequences of proteins named here, by UniProt entry; tags and fusion partners are left off. A change or cut given only in a name is not applied to a line headed by its entry.
UniProt Q9Y2S6, whole entry, looked up: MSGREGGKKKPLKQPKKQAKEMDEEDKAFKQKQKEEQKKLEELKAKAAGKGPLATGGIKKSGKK
UniProt Q5U3C3: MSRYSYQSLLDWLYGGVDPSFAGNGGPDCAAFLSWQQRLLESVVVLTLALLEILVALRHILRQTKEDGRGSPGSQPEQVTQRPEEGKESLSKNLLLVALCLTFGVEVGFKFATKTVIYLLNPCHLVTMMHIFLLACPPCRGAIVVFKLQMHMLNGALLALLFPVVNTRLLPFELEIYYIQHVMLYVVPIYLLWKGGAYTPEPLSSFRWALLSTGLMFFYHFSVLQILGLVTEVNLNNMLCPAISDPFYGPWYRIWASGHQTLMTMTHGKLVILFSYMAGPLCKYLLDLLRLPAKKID
UniProt Q9BVW5: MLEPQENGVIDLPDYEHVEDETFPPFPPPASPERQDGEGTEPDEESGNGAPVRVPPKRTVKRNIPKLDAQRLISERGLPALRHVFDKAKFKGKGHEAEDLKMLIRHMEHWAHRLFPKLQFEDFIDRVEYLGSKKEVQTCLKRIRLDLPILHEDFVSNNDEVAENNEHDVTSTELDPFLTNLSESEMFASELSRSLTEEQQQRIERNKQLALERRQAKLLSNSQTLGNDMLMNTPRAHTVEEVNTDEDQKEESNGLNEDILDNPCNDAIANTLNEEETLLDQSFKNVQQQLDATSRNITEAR
UniProt O43493: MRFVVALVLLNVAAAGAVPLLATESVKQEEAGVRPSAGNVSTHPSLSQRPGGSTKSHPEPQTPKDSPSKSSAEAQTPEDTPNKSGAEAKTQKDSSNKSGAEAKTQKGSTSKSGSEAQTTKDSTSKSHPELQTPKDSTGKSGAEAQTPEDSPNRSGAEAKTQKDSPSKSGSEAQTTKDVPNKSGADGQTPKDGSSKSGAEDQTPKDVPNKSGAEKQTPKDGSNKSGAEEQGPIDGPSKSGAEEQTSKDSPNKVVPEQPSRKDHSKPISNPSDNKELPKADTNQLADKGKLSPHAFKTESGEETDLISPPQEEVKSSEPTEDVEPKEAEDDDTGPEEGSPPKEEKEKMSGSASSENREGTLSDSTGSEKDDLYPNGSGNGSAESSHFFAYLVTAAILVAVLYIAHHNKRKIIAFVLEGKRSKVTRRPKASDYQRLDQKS
UniProt Q96MV1: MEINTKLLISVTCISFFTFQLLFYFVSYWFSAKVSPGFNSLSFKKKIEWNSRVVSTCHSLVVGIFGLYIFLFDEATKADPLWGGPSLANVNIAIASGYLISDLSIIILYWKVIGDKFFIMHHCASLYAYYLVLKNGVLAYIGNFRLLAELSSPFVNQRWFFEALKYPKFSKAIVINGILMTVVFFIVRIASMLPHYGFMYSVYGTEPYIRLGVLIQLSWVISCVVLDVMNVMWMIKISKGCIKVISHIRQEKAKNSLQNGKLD
UniProt Q86W42: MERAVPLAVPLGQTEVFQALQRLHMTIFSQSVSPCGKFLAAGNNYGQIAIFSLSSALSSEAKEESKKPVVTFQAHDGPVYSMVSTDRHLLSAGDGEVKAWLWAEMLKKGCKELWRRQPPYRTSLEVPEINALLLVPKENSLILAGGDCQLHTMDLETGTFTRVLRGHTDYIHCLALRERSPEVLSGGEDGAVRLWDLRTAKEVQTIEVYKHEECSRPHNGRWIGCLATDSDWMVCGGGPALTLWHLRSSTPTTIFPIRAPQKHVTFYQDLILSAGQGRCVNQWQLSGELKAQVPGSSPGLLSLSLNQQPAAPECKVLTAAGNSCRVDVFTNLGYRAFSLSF
UniProt Q9NXG2: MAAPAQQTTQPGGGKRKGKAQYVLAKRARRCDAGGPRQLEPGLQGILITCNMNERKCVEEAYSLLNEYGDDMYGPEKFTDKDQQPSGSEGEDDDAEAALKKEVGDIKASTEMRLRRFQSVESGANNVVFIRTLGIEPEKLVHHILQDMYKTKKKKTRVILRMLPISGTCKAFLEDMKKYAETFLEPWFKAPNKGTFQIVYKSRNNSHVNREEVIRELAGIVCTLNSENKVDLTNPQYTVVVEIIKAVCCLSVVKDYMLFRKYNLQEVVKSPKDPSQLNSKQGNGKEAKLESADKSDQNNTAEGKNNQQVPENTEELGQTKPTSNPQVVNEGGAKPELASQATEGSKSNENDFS
UniProt Q99805: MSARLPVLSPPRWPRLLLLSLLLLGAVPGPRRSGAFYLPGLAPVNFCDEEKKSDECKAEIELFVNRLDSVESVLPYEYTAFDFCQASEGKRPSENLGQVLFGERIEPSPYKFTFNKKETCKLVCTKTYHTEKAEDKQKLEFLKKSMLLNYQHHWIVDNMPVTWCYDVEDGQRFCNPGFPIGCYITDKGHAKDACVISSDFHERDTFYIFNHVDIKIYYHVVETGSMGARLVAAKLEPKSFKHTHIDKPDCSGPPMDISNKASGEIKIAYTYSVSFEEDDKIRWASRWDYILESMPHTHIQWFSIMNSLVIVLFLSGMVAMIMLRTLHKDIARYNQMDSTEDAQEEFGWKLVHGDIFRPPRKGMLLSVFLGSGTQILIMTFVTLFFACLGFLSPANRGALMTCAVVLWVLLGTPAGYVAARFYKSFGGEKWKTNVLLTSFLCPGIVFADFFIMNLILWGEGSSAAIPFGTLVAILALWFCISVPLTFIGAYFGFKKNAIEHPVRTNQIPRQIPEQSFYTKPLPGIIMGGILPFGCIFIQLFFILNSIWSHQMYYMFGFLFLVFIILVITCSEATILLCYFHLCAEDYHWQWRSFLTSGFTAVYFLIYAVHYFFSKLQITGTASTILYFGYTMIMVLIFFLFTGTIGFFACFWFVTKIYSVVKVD
UniProt Q9NR96: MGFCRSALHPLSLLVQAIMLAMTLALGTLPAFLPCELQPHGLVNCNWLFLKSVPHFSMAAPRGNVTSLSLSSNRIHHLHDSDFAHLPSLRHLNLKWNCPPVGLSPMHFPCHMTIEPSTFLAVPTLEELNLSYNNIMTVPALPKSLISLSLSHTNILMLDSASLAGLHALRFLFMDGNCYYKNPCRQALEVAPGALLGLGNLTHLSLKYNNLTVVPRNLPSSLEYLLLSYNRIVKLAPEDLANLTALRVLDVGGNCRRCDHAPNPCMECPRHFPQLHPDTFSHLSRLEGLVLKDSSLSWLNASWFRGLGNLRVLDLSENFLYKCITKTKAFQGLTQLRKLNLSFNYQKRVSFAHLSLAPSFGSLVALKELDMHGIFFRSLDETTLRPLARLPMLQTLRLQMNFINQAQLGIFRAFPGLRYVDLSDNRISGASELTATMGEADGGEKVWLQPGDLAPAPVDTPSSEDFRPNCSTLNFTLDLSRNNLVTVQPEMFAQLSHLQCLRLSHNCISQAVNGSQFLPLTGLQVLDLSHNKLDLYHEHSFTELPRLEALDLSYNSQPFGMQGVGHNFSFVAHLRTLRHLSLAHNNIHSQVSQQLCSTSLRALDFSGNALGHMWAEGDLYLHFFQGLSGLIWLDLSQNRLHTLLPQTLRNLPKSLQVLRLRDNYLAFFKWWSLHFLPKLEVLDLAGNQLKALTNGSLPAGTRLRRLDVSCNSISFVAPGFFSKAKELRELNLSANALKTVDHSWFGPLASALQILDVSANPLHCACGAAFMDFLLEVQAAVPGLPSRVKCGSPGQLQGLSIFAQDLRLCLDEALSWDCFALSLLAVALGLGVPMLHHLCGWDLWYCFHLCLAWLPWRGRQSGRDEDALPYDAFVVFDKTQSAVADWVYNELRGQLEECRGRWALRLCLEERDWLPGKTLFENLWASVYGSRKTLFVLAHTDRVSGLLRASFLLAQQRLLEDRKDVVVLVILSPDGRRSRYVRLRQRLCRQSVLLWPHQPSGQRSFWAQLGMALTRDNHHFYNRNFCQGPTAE
UniProt P01033: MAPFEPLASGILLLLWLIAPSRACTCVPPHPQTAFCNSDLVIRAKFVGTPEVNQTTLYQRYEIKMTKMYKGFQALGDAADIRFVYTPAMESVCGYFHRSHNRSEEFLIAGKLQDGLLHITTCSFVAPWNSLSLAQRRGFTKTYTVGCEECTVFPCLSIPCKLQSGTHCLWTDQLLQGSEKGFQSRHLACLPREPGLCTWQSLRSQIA
UniProt Q8NI27: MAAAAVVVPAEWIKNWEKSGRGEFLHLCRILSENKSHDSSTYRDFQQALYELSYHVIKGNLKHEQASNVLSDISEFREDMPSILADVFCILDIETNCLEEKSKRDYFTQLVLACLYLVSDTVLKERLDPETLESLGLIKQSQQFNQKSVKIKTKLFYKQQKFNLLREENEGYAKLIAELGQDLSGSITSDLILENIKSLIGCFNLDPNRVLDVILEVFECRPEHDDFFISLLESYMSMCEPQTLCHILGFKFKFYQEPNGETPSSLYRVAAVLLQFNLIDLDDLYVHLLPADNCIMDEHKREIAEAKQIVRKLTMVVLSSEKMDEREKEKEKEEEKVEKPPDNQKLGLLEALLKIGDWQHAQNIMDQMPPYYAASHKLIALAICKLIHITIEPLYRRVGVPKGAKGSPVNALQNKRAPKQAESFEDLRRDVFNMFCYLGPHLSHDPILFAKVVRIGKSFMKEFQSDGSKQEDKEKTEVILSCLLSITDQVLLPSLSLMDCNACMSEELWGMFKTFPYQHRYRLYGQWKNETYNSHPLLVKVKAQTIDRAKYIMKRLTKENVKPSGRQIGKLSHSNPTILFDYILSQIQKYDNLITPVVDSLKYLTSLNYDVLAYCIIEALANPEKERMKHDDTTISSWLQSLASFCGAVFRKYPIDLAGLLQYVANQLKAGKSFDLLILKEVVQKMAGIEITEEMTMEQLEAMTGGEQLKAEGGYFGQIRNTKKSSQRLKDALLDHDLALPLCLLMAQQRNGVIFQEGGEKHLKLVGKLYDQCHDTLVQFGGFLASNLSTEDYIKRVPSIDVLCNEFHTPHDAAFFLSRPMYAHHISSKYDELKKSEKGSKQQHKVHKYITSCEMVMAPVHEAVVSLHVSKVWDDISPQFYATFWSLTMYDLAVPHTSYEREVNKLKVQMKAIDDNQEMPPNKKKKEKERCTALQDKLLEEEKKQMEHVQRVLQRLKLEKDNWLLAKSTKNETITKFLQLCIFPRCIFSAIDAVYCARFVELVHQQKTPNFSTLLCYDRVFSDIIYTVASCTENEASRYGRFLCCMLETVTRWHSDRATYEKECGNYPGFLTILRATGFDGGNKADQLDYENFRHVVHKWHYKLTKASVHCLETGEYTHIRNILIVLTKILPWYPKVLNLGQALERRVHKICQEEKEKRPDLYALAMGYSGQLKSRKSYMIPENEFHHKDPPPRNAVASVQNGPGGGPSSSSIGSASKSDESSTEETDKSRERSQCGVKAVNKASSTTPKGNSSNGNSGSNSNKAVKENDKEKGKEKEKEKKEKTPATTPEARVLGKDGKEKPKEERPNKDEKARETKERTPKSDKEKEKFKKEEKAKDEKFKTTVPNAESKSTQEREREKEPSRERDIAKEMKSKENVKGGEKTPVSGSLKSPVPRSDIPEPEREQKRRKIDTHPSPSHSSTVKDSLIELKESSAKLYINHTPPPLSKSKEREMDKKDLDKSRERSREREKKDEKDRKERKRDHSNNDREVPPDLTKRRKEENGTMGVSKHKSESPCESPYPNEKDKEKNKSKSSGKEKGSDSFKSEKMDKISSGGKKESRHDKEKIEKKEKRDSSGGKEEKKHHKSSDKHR
UniProt Q9HD45: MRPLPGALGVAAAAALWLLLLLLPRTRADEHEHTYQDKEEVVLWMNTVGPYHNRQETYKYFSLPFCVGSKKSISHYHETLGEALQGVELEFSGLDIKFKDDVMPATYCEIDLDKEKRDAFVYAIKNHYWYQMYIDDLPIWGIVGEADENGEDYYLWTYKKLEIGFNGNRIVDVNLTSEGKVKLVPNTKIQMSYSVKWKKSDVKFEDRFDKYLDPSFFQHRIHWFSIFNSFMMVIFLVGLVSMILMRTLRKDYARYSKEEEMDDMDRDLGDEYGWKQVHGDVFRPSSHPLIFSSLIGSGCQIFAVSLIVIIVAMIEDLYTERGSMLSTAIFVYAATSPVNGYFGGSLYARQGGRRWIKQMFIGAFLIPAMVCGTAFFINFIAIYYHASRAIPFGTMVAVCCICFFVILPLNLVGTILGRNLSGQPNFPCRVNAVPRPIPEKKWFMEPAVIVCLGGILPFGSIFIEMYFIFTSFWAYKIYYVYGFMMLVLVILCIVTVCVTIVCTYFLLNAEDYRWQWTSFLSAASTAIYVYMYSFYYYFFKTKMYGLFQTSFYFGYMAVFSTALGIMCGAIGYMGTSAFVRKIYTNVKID
UniProt P17152: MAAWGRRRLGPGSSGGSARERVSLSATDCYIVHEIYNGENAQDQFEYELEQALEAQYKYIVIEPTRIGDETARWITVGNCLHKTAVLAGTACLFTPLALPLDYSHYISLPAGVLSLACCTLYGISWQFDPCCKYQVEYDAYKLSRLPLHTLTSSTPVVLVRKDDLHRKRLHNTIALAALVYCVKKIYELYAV

Tests used:
Test in all cases: log2 fold change, soluble protein after heating vs DMSO (PISA); higher = thermal stabilisation; K562 lysate, 10 uM; active = over 0.2 and 3.5 SD of the protein, either way, in both replicates (recomputed)
lapatinib = compound: CS(=O)(=O)CCNCc1ccc(-c2ccc3ncnc(Nc4ccc(OCc5cccc(F)c5)c(Cl)c4)c3c2)o1 [lapatinib]
Method in brief: (§1)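 A 30 min treatment with 10 μM compound was applied to crude K562 extract at 1 mg/mL protein in PBS pH 7.4 with 1 mM MgCl2. Heating for 3 min spanned 48°C-58°C, after which aliquots were pooled, adjusted to 0.5% NP-40 at 4°C and spun at 21,000xg for 90 min. TMTpro 16plex LC-MS/MS of the supernatant, with channel sums equalised, gave values recorded as log-two fold change in thermal stability against solvent controls, from duplicates.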

pictilisib = compound: CS(=O)(=O)N1CCN(Cc2cc3nc(-c4cccc5[nH]ncc45)nc(N4CCOCC4)c3s2)CC1 [pictilisib]
Method in brief: as §1

crizotinib = compound: C[C@@H](Oc1cc(-c2cnn(C3CCNCC3)c2)cnc1N)c1c(Cl)ccc(F)c1Cl [crizotinib]
Method in brief: as §1

[1] = compound: C[C@H](C1=CC=C(C=C1)C(=O)NC2=C3C=CNC3=NC=C2)N
Method in brief: as §1

duvelisib = compound: C[C@H](Nc1ncnc2nc[nH]c12)c1cc2cccc(Cl)c2c(=O)n1-c1ccccc1 [duvelisib]
Method in brief: as §1

gandotinib = compound: Cc1cc(Nc2cc(CN3CCOCC3)c3nc(C)c(Cc4ccc(Cl)cc4F)n3n2)n[nH]1 [gandotinib]
Method in brief: as §1

tozasertib = compound: Cc1cc(Nc2cc(N3CCN(C)CC3)nc(Sc3ccc(NC(=O)C4CC4)cc3)n2)n[nH]1 [tozasertib]
Method in brief: as §1

doramapimod = compound: Cc1ccc(-n2nc(C(C)(C)C)cc2NC(=O)Nc2ccc(OCCN3CCOCC3)c3ccccc23)cc1 [doramapimod]
Method in brief: as §1

bafetinib = compound: Cc1ccc(NC(=O)c2ccc(CN3CC[C@H](N(C)C)C3)c(C(F)(F)F)c2)cc1Nc1nccc(-c2cncnc2)n1 [bafetinib]
Method in brief: as §1

[2] = compound: Cc1cccc(CC(=O)N2CCc3c2ccc(-c2cn(C)c4ncnc(N)c24)c3F)n1
Method in brief: as §1

nilotinib = compound: Cc1cn(-c2cc(NC(=O)c3ccc(C)c(Nc4nccc(-c5cccnc5)n4)c3)cc(C(F)(F)F)c2)cn1 [nilotinib]
Method in brief: as §1

[3] = compound: Cc1nc(Nc2n[nH]c3c2CN(C(=O)N[C@H](CN(C)C)c2ccccc2)C3(C)C)c2sccc2n1
Method in brief: as §1

dasatinib = compound: Cc1nc(Nc2ncc(C(=O)Nc3c(C)cccc3Cl)s2)cc(N2CCN(CCO)CC2)n1 [dasatinib]
Method in brief: as §1

[4] = compound: Cc1ncc(-c2ccnc(Nc3ccc(S(C)(=O)=O)cc3)n2)n1C(C)C
Method in brief: as §1

[5] = compound: Cn1cc(-c2ccc3c(c2)CCN3C(=O)Cc2cccc(C(F)(F)F)c2)c2c(N)ncnc21
Method in brief: as §1

quisinostat = compound: Cn1cc(CNCC2CCN(c3ncc(C(=O)NO)cn3)CC2)c2ccccc21 [quisinostat]
Method in brief: as §1

tipifarnib = compound: Cn1cncc1[C@@](N)(c1ccc(Cl)cc1)c1ccc2c(c1)c(-c1cccc(Cl)c1)cc(=O)n2C [tipifarnib]
Method in brief: as §1

[6] = compound: NC(=O)Nc1cc(-c2cccc(F)c2)sc1C(=O)N[C@H]1CCCNC1
Method in brief: as §1

[7] = compound: NC(=O)c1cnc(N[C@@H]2CCCC[C@@H]2N)nc1Nc1cccc(-n2nccn2)c1
Method in brief: as §1

[8] = compound: NC1(c2ccc(-c3nc4ccn5c(=O)[nH]nc5c4cc3-c3ccccc3)cc2)CCC1
Method in brief: as §1

Target | log2 fold change (lapatinib) | log2 fold change (pictilisib) | log2 fold change (crizotinib) | log2 fold change [1] | log2 fold change (duvelisib) | log2 fold change (gandotinib) | log2 fold change (tozasertib) | log2 fold change (doramapimod) | log2 fold change (bafetinib) | log2 fold change [2] | log2 fold change (nilotinib) | log2 fold change [3] | log2 fold change (dasatinib) | log2 fold change [4] | log2 fold change [5] | log2 fold change (quisinostat) | log2 fold change (tipifarnib) | log2 fold change [6] | log2 fold change [7] | log2 fold change [8]
TMA7 (UniProt Q9Y2S6) | inactive: -0.015 | inactive: -0.006 | inactive: 0.164 | inactive: -0.08 | inactive: -0.011 | inactive: 0.029 | inactive: 0.023 | inactive: -0.126 | inactive: -0.014 | inactive: 0.047 | inactive: -0.043 | inactive: 0.043 | inactive: 0.06 | inactive: -0.005 | inactive: 0.011 | inactive: 0.214 | inactive: 0.047 | inactive: -0.046 | inactive: 0.019 | inactive: -0.027
TMEM164 (UniProt Q5U3C3) | inactive: -0.166 | inactive: 0.186 | inactive: -0.03 | active: -0.789 | inactive: 0.131 | inactive: 0.27 | inactive: -0.091 | inactive: -0.173 | inactive: -0.05 | inactive: 0.512 | inactive: 0.06 | inactive: -0.009 | inactive: -0.087 | inactive: 0.162 | inactive: -0.041 | inactive: -0.404 | inactive: -0.055 | inactive: 0.1 | inactive: 0.083 | inactive: -0.036
TIPIN (UniProt Q9BVW5) | inactive: 0.027 | inactive: -0.002 | inactive: 0.042 | inactive: -0.104 | inactive: 0.012 | inactive: 0.062 | inactive: 0.034 | inactive: -0.029 | inactive: -0.053 | inactive: 0.065 | inactive: -0.072 | inactive: 0.029 | inactive: 0.002 | inactive: -0.026 | inactive: 0.002 | inactive: 0.023 | inactive: -0.074 | inactive: -0.038 | inactive: -0.076 | inactive: 0.057
TGOLN2 isoform 7 (UniProt O43493) | inactive: -0.007 | inactive: 0.001 | inactive: 0.045 | inactive: -0.051 | inactive: 0.021 | inactive: 0.034 | inactive: -0.065 | inactive: -0.03 | inactive: 0.032 | inactive: 0.034 | inactive: -0.059 | inactive: -0.004 | inactive: 0.023 | inactive: 0.021 | inactive: 0.033 | inactive: -0.029 | inactive: -0.087 | inactive: 0.014 | inactive: 0.019 | inactive: 0.008
THOC1 (UniProt Q96FV9) | inactive: -0.004 | inactive: 0.008 | inactive: -0.022 | inactive: -0.096 | inactive: 0.009 | inactive: -0.01 | inactive: 0.028 | inactive: 0.025 | inactive: -0.006 | inactive: 0.038 | inactive: 0.016 | inactive: 0.004 | inactive: -0.015 | inactive: 0.03 | inactive: 0.008 | inactive: -0.036 | inactive: -0.003 | inactive: -0.004 | inactive: -0.017 | inactive: 0.033
TLCD4 (UniProt Q96MV1) | inactive: -0.001 | inactive: -0.025 | inactive: 0.113 | inactive: -0.173 | inactive: 0.045 | inactive: 0.089 | inactive: -0.064 | inactive: -0.097 | inactive: -0.039 | inactive: 0.09 | inactive: 0.061 | inactive: 0.064 | inactive: 0.065 | inactive: 0 | inactive: 0.011 | inactive: 0.204 | inactive: -0.028 | inactive: -0.047 | inactive: -0.049 | inactive: 0.025
THOC6 (UniProt Q86W42) | inactive: -0.021 | inactive: -0.034 | inactive: -0.008 | inactive: -0.022 | inactive: 0.025 | inactive: 0.029 | inactive: -0.03 | inactive: 0.025 | inactive: 0.013 | inactive: 0.028 | inactive: 0.011 | inactive: -0.036 | inactive: -0.007 | inactive: -0.022 | inactive: 0.005 | inactive: -0.009 | inactive: 0.062 | inactive: 0.007 | inactive: 0.018 | inactive: -0.054
THUMPD1 (UniProt Q9NXG2) | inactive: -0.013 | inactive: 0.015 | inactive: -0.034 | inactive: -0.055 | inactive: 0.023 | inactive: 0.011 | inactive: 0.005 | inactive: 0.081 | inactive: 0.007 | inactive: -0.007 | inactive: 0.019 | inactive: -0.038 | inactive: -0.01 | inactive: 0.021 | inactive: 0.031 | inactive: -0.052 | inactive: 0.001 | inactive: -0.009 | inactive: -0.009 | inactive: -0.008
TM9SF2 (UniProt Q99805) | inactive: -0.057 | inactive: -0.019 | inactive: -0.007 | inactive: -0.094 | inactive: -0.006 | inactive: 0.036 | inactive: -0.008 | inactive: 0.014 | inactive: -0.041 | inactive: 0.083 | inactive: 0.002 | inactive: 0.004 | inactive: -0.035 | inactive: 0.008 | inactive: -0.025 | inactive: 0.03 | inactive: -0.012 | inactive: -0.022 | inactive: 0.002 | inactive: -0.017
TLR9 isoform 4 (UniProt Q9NR96) | inactive: 0.02 | inactive: 0.086 | inactive: 0.043 | inactive: -0.004 | inactive: 0.037 | inactive: -0.038 | inactive: -0.014 | inactive: -0.019 | inactive: -0.042 | inactive: -0.092 | inactive: -0.036 | inactive: 0.021 | inactive: -0.006 | inactive: -0.03 | inactive: -0.06 | inactive: -0.027 | inactive: -0.046 | inactive: -0.005 | inactive: -0.009 | inactive: 0.028
TGS1 (UniProt Q96RS0) | inactive: -0.006 | inactive: 0.002 | inactive: -0.019 | inactive: -0.099 | inactive: 0.012 | inactive: 0.045 | inactive: 0.022 | inactive: 0.021 | inactive: -0.033 | inactive: 0.091 | inactive: -0.008 | inactive: 0.009 | inactive: 0.007 | inactive: -0.036 | inactive: 0.002 | inactive: -0.024 | inactive: 0 | inactive: 0.023 | inactive: 0.013 | inactive: 0.034
THADA (UniProt Q6YHU6) | inactive: -0.042 | inactive: -0.06 | inactive: -0.073 | inactive: -0.041 | inactive: -0.02 | inactive: -0.064 | inactive: -0.003 | inactive: -0.002 | inactive: -0.041 | inactive: 0.086 | inactive: 0.009 | inactive: 0.012 | inactive: -0.048 | inactive: 0.008 | inactive: 0.027 | inactive: -0.115 | inactive: -0.011 | inactive: 0.053 | inactive: 0.007 | inactive: 0.002
TIMP1 (UniProt P01033) | inactive: -0.019 | inactive: 0.009 | inactive: -0.015 | inactive: -0.082 | inactive: -0.014 | inactive: 0.05 | inactive: 0.088 | inactive: 0.039 | inactive: -0.056 | inactive: -0.008 | inactive: -0.006 | inactive: -0.007 | inactive: 0.036 | inactive: 0.001 | inactive: -0.034 | inactive: -0.036 | inactive: -0.001 | inactive: -0.019 | inactive: 0.008 | inactive: -0.037
THOC2 (UniProt Q8NI27) | inactive: -0.017 | inactive: -0.008 | inactive: -0.022 | inactive: -0.011 | inactive: 0.014 | inactive: -0.044 | inactive: -0.008 | inactive: -0.009 | inactive: -0.034 | inactive: 0.057 | inactive: 0.02 | inactive: -0.019 | inactive: -0.044 | inactive: -0.006 | inactive: 0.01 | inactive: -0.046 | inactive: -0.02 | inactive: 0.03 | inactive: 0.003 | inactive: -0.006
TM9SF3 (UniProt Q9HD45) | inactive: -0.03 | inactive: -0.015 | inactive: -0.023 | inactive: -0.028 | inactive: -0.006 | inactive: -0.019 | inactive: -0.016 | inactive: 0.017 | inactive: -0.03 | inactive: 0.09 | inactive: -0.038 | inactive: -0.089 | inactive: 0.014 | inactive: -0.108 | inactive: 0 | inactive: -0.004 | inactive: -0.032 | inactive: 0.007 | inactive: -0.035 | inactive: -0.032
TMEM11 (UniProt P17152) | inactive: 0.013 | inactive: 0.008 | inactive: 0.058 | inactive: -0.029 | inactive: -0.028 | inactive: 0.045 | inactive: 0.103 | inactive: 0.067 | inactive: -0.046 | inactive: -0.022 | inactive: 0.011 | inactive: -0.011 | inactive: 0 | inactive: -0.029 | inactive: -0.024 | inactive: 0.037 | inactive: -0.01 | inactive: 0 | inactive: -0.008 | inactive: -0.016

Complete entries as entered above. Order of values: log2 fold change (lapatinib)	log2 fold change (pictilisib)	log2 fold change (crizotinib)	log2 fold change [1]	log2 fold change (duvelisib)	log2 fold change (gandotinib)	log2 fold change (tozasertib)	log2 fold change (doramapimod)	log2 fold change (bafetinib)	log2 fold change [2]	log2 fold change (nilotinib)	log2 fold change [3]	log2 fold change (dasatinib)	log2 fold change [4]	log2 fold change [5]	log2 fold change (quisinostat)	log2 fold change (tipifarnib)	log2 fold change [6]	log2 fold change [7]	log2 fold change [8]
THOC6 (UniProt Q86W42) in the list: inactive: -0.021	inactive: -0.034	inactive: -0.008	inactive: -0.022	inactive: 0.025	inactive: 0.029	inactive: -0.03	inactive: 0.025	inactive: 0.013	inactive: 0.028	inactive: 0.011	inactive: -0.036	inactive: -0.007	inactive: -0.022	inactive: 0.005	inactive: -0.009	inactive: 0.062	inactive: 0.007	inactive: 0.018	inactive: -0.054
TLR9 isoform 4 (UniProt Q9NR96) in the list: inactive: 0.02	inactive: 0.086	inactive: 0.043	inactive: -0.004	inactive: 0.037	inactive: -0.038	inactive: -0.014	inactive: -0.019	inactive: -0.042	inactive: -0.092	inactive: -0.036	inactive: 0.021	inactive: -0.006	inactive: -0.03	inactive: -0.06	inactive: -0.027	inactive: -0.046	inactive: -0.005	inactive: -0.009	inactive: 0.028
